Measured values taken from article PMC4667618.
These are yes or no findings as the source states them, for the method shown. Binding seen in cells or lysates may run through a third protein. For part of these data: Binding calls can cover weak binding; strength is not graded here.

Amino acid sequences for entries named in this document (tags omitted). A change or cut given only in a name is not applied to a line headed by its entry.
UniProt Q03267: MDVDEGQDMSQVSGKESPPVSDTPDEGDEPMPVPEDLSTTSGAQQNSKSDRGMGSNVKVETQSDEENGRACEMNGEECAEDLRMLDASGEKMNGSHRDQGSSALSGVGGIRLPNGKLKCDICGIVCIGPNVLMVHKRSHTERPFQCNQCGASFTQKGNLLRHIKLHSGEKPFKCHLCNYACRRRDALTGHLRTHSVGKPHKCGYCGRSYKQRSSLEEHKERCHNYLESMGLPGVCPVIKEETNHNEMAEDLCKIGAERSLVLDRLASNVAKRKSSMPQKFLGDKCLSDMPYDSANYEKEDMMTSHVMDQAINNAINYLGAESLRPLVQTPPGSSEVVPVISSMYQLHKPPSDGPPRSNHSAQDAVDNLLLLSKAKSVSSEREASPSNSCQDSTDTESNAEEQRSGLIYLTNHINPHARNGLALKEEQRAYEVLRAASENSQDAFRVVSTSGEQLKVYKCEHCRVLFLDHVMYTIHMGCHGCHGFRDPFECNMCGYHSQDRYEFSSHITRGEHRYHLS
UniProt Q61188: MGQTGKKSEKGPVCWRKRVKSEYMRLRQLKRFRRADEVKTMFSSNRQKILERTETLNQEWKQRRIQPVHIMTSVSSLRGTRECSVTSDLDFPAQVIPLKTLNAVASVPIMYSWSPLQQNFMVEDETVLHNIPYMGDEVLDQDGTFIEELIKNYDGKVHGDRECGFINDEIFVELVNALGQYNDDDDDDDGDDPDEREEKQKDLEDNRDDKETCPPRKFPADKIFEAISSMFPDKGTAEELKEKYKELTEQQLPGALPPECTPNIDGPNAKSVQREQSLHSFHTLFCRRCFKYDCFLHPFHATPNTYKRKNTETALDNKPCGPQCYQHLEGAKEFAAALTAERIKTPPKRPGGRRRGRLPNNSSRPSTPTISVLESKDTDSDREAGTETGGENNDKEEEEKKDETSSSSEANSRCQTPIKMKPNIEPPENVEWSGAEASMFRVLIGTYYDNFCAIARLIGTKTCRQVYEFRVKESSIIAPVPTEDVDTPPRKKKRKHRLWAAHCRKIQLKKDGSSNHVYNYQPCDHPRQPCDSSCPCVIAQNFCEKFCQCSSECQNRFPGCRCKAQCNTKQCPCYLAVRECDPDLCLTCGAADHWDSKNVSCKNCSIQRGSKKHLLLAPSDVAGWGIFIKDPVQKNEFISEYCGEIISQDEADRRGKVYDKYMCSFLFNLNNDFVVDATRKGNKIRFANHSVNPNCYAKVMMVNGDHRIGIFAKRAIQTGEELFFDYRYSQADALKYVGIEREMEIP

Assays:
Experiment in all cases: co-IP; nuclear extracts (RIPA buffer) of ILC87-Ik1-Bcl2 cells, or of ILC87-Bcl2 cells expressing Ikaros deletion mutants; IP with anti-Ikaros, anti-Suz12, anti-Ezh2 or IgG overnight at 4 °C; washed 5x with RIPA containing 300 mM NaCl; western blotting
[1] = biological target: Ikaros ΔDIM (Ik1 lacking the dimerization domain, aa457–508) (UniProt Q03267)
[2] = biological target: Ikaros ΔDBD (Ik1 lacking the DNA-binding domain, aa119–223) (UniProt Q03267)
[3] = biological target: Ikaros ΔN (Ik1 lacking the amino-terminal domain, aa1–114) (UniProt Q03267)

- binding [1]: no binding
- binding [2]: binds
- binding [3]: binds
Substance: Ezh2 (from UniProt Q61188 1-746)
